In patent publication US20190352376A1:
These are yes or no findings as the source states them, for the method shown. Some entries that bind do so weakly or less than the wild type.

Sequences of proteins named here, by UniProt entry; tags and fusion partners are left off. A change or cut given only in a name is not applied to a line headed by its entry. Residues count along the entry.
UniProt P03452, residues 18-528: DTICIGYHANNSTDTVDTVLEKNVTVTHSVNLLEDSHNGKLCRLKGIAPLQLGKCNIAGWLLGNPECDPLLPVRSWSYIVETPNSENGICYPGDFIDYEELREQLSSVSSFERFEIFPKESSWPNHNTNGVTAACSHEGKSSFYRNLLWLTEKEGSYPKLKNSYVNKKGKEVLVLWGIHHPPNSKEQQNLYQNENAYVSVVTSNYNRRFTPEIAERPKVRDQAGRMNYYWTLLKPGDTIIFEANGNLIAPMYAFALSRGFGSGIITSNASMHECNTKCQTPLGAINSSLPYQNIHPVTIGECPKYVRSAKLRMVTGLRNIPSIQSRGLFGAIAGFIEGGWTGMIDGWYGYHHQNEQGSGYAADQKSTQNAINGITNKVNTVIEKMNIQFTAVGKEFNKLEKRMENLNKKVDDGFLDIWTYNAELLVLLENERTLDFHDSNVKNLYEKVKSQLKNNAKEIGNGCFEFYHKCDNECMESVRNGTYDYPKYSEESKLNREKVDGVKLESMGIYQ
UniProt P13103: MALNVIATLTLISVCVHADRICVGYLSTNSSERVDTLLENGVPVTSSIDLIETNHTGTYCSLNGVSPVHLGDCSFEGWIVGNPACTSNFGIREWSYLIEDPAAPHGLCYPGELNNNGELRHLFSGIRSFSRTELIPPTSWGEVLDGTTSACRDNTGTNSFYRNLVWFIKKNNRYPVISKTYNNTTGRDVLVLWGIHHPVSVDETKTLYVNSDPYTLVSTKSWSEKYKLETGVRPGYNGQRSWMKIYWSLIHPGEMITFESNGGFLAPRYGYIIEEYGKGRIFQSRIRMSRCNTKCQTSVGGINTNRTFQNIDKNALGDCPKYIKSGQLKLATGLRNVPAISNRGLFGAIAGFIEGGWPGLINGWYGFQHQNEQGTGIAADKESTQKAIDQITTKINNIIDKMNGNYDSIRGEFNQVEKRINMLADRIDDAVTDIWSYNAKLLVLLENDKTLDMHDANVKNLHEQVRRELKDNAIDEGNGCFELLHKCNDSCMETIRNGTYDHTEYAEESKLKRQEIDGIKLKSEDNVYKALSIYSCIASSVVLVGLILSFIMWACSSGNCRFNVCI
UniProt P03456: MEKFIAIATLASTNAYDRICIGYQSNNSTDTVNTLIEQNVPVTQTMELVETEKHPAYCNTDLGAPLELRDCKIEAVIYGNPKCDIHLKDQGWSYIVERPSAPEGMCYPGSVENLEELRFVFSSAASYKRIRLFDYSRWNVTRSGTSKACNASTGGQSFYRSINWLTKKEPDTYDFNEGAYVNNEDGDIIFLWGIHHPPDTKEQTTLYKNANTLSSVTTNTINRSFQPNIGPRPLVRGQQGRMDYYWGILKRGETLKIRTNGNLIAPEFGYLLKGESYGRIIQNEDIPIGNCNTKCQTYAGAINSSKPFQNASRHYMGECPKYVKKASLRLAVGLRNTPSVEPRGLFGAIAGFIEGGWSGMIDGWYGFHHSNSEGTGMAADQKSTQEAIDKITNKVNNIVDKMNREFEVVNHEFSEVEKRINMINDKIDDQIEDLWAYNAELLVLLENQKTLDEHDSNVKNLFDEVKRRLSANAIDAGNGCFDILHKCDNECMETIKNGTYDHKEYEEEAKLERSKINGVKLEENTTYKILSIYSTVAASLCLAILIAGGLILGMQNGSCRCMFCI
UniProt P03457: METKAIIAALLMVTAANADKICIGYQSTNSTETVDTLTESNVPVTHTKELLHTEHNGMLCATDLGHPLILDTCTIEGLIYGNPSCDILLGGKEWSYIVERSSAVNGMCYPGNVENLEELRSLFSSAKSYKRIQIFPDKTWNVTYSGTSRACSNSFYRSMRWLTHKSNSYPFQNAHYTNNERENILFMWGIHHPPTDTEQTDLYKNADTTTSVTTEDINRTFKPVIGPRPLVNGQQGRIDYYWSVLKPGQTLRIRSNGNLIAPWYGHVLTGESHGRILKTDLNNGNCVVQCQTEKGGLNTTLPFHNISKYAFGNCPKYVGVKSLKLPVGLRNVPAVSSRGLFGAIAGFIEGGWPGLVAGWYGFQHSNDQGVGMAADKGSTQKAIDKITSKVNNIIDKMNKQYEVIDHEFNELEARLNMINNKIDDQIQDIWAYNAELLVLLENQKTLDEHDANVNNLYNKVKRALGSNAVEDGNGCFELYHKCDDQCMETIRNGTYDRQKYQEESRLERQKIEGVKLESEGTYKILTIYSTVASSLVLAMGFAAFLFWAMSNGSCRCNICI
UniProt P03446: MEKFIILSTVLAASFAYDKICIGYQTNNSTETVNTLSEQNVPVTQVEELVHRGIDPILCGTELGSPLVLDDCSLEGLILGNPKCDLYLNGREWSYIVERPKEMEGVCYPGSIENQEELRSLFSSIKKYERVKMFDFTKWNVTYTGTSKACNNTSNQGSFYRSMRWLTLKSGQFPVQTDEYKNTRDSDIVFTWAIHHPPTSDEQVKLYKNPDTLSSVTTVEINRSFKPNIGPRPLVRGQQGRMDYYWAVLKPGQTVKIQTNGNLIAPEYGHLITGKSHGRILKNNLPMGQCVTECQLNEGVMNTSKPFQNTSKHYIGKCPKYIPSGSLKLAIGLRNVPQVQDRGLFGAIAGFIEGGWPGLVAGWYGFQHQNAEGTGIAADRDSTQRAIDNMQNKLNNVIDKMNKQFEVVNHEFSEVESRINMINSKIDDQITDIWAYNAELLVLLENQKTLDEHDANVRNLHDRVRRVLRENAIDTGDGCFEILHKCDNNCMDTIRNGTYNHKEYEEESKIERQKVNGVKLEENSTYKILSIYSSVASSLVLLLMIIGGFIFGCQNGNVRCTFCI
UniProt P03454, residues 18-565: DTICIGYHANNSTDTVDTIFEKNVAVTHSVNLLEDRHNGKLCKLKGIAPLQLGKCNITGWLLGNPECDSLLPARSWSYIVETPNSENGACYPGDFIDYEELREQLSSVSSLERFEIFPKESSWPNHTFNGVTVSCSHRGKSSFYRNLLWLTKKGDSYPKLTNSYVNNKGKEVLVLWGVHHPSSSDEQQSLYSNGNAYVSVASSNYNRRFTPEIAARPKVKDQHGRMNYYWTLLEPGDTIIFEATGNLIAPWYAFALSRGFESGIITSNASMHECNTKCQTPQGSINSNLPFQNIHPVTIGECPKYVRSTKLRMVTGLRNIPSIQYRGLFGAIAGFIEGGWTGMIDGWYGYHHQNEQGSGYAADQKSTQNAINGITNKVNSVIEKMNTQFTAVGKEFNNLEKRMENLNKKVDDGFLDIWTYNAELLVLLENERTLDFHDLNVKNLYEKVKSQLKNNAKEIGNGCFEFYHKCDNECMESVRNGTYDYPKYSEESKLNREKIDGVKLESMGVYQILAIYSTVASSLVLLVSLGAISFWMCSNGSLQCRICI

Tests used:
[1] = biological target: hemagglutinin of H1N1 A/Puerto Rico/8/1934 (influenza virus H1N1 A/Puerto Rico/8/1934) (UniProt P03452); test: Western blot; rHA
[2] = biological target: hemagglutinin of H1N1 A/Puerto Rico/8/1934 (influenza virus H1N1 A/Puerto Rico/8/1934) (UniProt P03452); test: dot blot, 4M urea
[3] = biological target: hemagglutinin of H13N6 A/Gull/Maryland/704/77 (influenza virus H13N6 A/Gull/Maryland/704/77) (UniProt P13103); test: Western blot; virus, eggs
[4] = biological target: hemagglutinin of H1N1 A/Puerto Rico/8/1934 (influenza virus H1N1 A/Puerto Rico/8/1934) (UniProt P03452); test: Western blot; virus, eggs
[5] = biological target: hemagglutinin of H8N4 A/Turkey/Ontario/6118/68 (influenza virus H8N4 A/Turkey/Ontario/6118/68) (UniProt P03456); test: Western blot; virus, eggs
[6] = biological target: hemagglutinin of H9N2 A/Turkey/Wisconsin/1/66 (influenza virus H9N2 A/Turkey/Wisconsin/1/66) (UniProt P03457); test: Western blot; virus, eggs
[7] = biological target: hemagglutinin of H1N1 A/Puerto Rico/8/1934 (influenza virus H1N1 A/Puerto Rico/8/1934) (UniProt P03452); test: Western blot; rHA, insect cells
[8] = biological target: hemagglutinin of H12N5 A/Duck/Alberta/60/76 (influenza virus H12N5 A/Duck/Alberta/60/76) (UniProt P03446); test: Western blot; virus, MDCK cells
[9] = biological target: hemagglutinin of H1N1 A/Puerto Rico/8/1934 (influenza virus H1N1 A/Puerto Rico/8/1934) (UniProt P03452); test: Western blot; virus, MDCK cells
[10] = biological target: hemagglutinin of H1N1 A/Puerto Rico/8/1934 (influenza virus H1N1 A/Puerto Rico/8/1934) (UniProt P03452); test: Western blot; virus, HEK293 cells
[11] = biological target: hemagglutinin of H1N1 A/Wilson Smith/33 (influenza virus H1N1 A/Wilson Smith/33) (UniProt P03454); test: Western blot; virus, HEK293 cells

Measured: binding

B1: F211-11H12 (antibody, V domains shown)
VH: DVQLQESGPGLVKPSQSLSLTCSVTGYSITSDYYWNWIRQFPGNKLEWMAYIGYDGTKNYNPSLKNRISITRDTSKNQFFLKLNSVTTDDTATYYCTRDRANWDDYFDYWGQGTTLTVSS
VL: DIVMSQSPSSLAVSVGEKVTMSCKSSQSLLNSRNQKNHLAWYQQKPGQSPKLLIYWASTRESGVPDRFTGDGSGTDFTLTISSVKAEDLAVYYCQQYYTYRTFGGGTKLEIK
binds: all assays above
